This passage reports ED50 results from patent EP0527889B1, “QUINOLIZINONE TYPE COMPOUNDS” (priority 1990, dated 1991).

Experiment [1] has as its system Escherichia coli JUHL. The experiment can be described thus: In vivo antibacterial activity in mice (protection from lethal intraperitoneal infection). To be noted: 144 h. How it is done:
(§1) The in vivo antibacterial activity of the compounds of the present invention was determined as follows: Aqueous solutions of the test compounds were prepared by dissolving the compound in distilled water, except for the compounds of examples 169 and 170 which were dissolved in a solution of 2% DMSO in distilled water.
(§2) After 18 hr incubation, a culture of Staphylococcus aureus NCTC 10649 was serially diluted by using 10-fold dilutions in 5% (w/v) hog gastric mucin. Cultures (0.5 mL) in a dilution from 10^-1 to 10^-8 were injected intraperitoneally into CF-1 female mice weighing approximately 20g. The LD50 (median lethal dose) for the test organism was calculated from the cumulative mortalities on the sixth day by the using the Reed and Muench procedure (Reed, L.J., and H. Muench, Amer. J. Hygiene, 27, 493 (1938)).
The above 18 hr culture was diluted in 5% (w/v) hog gastric mucin to obtain 100 times the LD50, and 0.5 mL was injected intraperitoneally into mice. […]
The LD50 for Escherichia coli JUHL was determined in a manner similar to that above for S. aureus. The 18 hr cultures of this organism were also prepared for po and sc testing in mice, from which ED50 values were calculated. Positive controls were run with temafloxacin as the test compound, for which ED50 values were also calculated.

In experiment [2] the test system is Staphylococcus aureus NCTC 10649. Described as above. The settings on record: 144 h. As to the method:
as §1, §2
The above 18 hr culture was diluted in 5% (w/v) hog gastric mucin to obtain 100 times the LD50, and 0.5 mL was injected intraperitoneally into mice. The mice were treated subcutaneously (sc) or orally (po) with a specific amount of the test compound divided equally to be administered at 1 and 5 hr after infection. A group of 10 animals each for at least three dose levels was thus treated, and the deaths were recorded daily for 6 days. Ten mice were left untreated as infection control. […]

A word on the ED50: it is the dose that gives a 50% effect, or the effect in half of the subjects. A higher ED50 goes with weaker potency.

Structures are written as SMILES. Counter-ions that a name gives are not always drawn.

On to `NC1CCN(c2nc3c(-c4ccc(F)cc4F)cc(C(=O)O)c(=O)n3cc2F)C1` (stereo not shown) [Example 162, 2-(3-Aminopyrrolidin-1-yl)-9-(2,4-difluorophenyl)-3-fluoro-6H-6-oxopyrido[1,2-a]pyrimidine-7-carboxylic acid trifluoroacetic acid salt], for which the median effective dose (ED50) in experiment [1] (po) came to 5.6 mg/kg; in experiment [1] (sc), 1 mg/kg; in experiment [2] (NCTC10649, po) it was 12 mg/kg; in experiment [2] (NCTC10649, sc), 4.4 mg/kg.
